Where a sequence shows no end group, the ends are not given.
Experiment: peptide made by a vendor (Fmoc solid-phase peptide synthesis)
Conditions: whole synthesis

Question: For HSLGKWLGHPDKF, which “final HPLC purity” value is on record?
Answer: >95%

Reference: patent US11090355B2 (BIOINCEPT, LLC, priority 2015, dated 2021)
